# Drug screen on melanoma cell lines: cell count

From a melanoma drug combination screen (doi:10.1371/journal.pone.0140310); values rounded.

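The test systems are human melanoma cell lines, treated with a pair of drugs for 72 h and then stained and imaged. Values are the number of DAPI-stained nuclei as a percentage of the DMSO control: 100 is no effect, lower means fewer cells. Concentrations were fixed for each drug; these are the lower of two levels, a fifth of the higher. These are primary screening values without error estimates.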
An unselected part of the screen is shown.

Drug key:
GSK0660, 1 µM: COC(=O)c1sccc1S(=O)(=O)Nc1ccc(Nc2ccccc2)cc1OC
decitabine, 0.1 µM: Nc1ncn([C@H]2C[C@H](O)[C@@H](CO)O2)c(=O)n1
XAV939, 2 µM: Oc1nc(-c2ccc(C(F)(F)F)cc2)nc2c1CSCC2
everolimus, 0.02 µM: CO[C@H]1C[C@@H]2CC[C@@H](C)[C@@](O)(O2)C(=O)C(=O)N2CCCC[C@H]2C(=O)O[C@H]([C@H](C)C[C@@H]2CC[C@@H](OCCO)[C@H](OC)C2)CC(=O)[C@H](C)/C=C(\C)[C@@H](O)[C@@H](OC)C(=O)[C@H](C)C[C@H](C)/C=C/C=C/C=C/1C
fludarabine, 0.2 µM: Nc1nc(F)nc2c1ncn2[C@@H]1O[C@H](CO)[C@@H](O)[C@@H]1O
CP-690550, 1 µM: C[C@@H]1CCN(C(=O)CC#N)C[C@@H]1N(C)c1ncnc2[nH]ccc12
nilotinib, 0.2 µM: Cc1cn(-c2cc(NC(=O)c3ccc(C)c(Nc4nccc(-c5cccnc5)n4)c3)cc(C(F)(F)F)c2)cn1
ZM336372, 2 µM: Cc1ccc(NC(=O)c2cccc(N(C)C)c2)cc1NC(=O)c1ccc(O)cc1
GW2580, 1 µM: COc1ccc(COc2ccc(Cc3cnc(N)nc3N)cc2OC)cc1
PF-04217903, 1 µM: OCCn1cc(-c2cnc3nnn(Cc4ccc5ncccc5c4)c3n2)cn1
YM155, 0.0004 µM: COCC[n+]1c2c(n(Cc3cnccn3)c1C)C(=O)c1ccccc1C2=O

Results for everolimus + CP-690550 are G-361: 76.2; LOX IMVI: 82.3; COLO 829: 99.1; COLO 792: 44.5. Results for decitabine + YM155 are G-361: 75.8; LOX IMVI: 82.7; COLO 829: 62.3; COLO 792: 71.0. Results for YM155 + XAV939 are G-361: 92.1; LOX IMVI: 104; COLO 829: 87.3; COLO 792: 90.0. nilotinib + PF-04217903 gave G-361: 115; LOX IMVI: 123; COLO 829: 121; COLO 792: 104.

For decitabine + CP-690550 the values were G-361: 72.3; LOX IMVI: 83.3; COLO 829: 84.9; COLO 792: 85.9. PF-04217903 + fludarabine gave G-361: 89.5; LOX IMVI: 60.2; COLO 829: 98.3; COLO 792: 84.2. XAV939 + PF-04217903 gave G-361: 84.0; LOX IMVI: 137; COLO 829: 84.7; COLO 792: 87.2. Results for ZM336372 + fludarabine are G-361: 115; LOX IMVI: 80.6; COLO 829: 108; COLO 792: 101.

With GSK0660 + fludarabine the screen read G-361: 92.4; LOX IMVI: 113; COLO 829: 95.6; COLO 792: 95.5. With YM155 + everolimus the screen read G-361: 66.5; LOX IMVI: 80.6; COLO 829: 66.3; COLO 792: 52.5. everolimus + XAV939 gave G-361: 55.6; LOX IMVI: 70.2; COLO 829: 88.9; COLO 792: 40.8. For PF-04217903 + GW2580 the values were G-361: 93.7; LOX IMVI: 117; COLO 829: 94.5; COLO 792: 105.

For CP-690550 + GW2580 the values were G-361: 94.6; LOX IMVI: 103; COLO 829: 119; COLO 792: 97.7. For ZM336372 + GW2580 the values were G-361: 101; LOX IMVI: 98.5; COLO 829: 118; COLO 792: 113. For PF-04217903 + GSK0660 the values were G-361: 91.9; LOX IMVI: 105; COLO 829: 117; COLO 792: 92.9. For XAV939 + decitabine the values were G-361: 86.8; LOX IMVI: 79.1; COLO 829: 26.0; COLO 792: 64.9.

GSK0660 + CP-690550 gave G-361: 102; LOX IMVI: 114; COLO 829: 89.8; COLO 792: 97.8. With ZM336372 + everolimus the screen read G-361: 75.0; LOX IMVI: 74.8; COLO 829: 86.5; COLO 792: 59.8. For everolimus + GW2580 the values were G-361: 61.3; LOX IMVI: 50.3; COLO 829: 98.4; COLO 792: 44.8. With fludarabine + GW2580 the screen read G-361: 95.8; LOX IMVI: 72.4; COLO 829: 96.8; COLO 792: 94.6.

With decitabine + GW2580 the screen read G-361: 90.4; LOX IMVI: 112; COLO 829: 79.9; COLO 792: 87.7. Results for CP-690550 + XAV939 are G-361: 95.8; LOX IMVI: 113; COLO 829: 88.4; COLO 792: 92.8. Results for fludarabine + YM155 are G-361: 85.1; LOX IMVI: 63.7; COLO 829: 82.2; COLO 792: 100. Results for ZM336372 + nilotinib are G-361: 91.0; LOX IMVI: 163; COLO 829: 106; COLO 792: 93.5.

With everolimus + nilotinib the screen read G-361: 56.3; LOX IMVI: 28.7; COLO 829: 93.3; COLO 792: 50.9. Results for everolimus + PF-04217903 are G-361: 65.8; LOX IMVI: 66.6; COLO 829: 72.5; COLO 792: 52.2. For ZM336372 + decitabine the values were G-361: 82.9; LOX IMVI: 108; COLO 829: 83.0; COLO 792: 93.6. For nilotinib + fludarabine the values were G-361: 92.5; LOX IMVI: 127; COLO 829: 92.4; COLO 792: 97.2.

Results for GSK0660 + ZM336372 are G-361: 96.1; LOX IMVI: 118; COLO 829: 96.9; COLO 792: 122. For CP-690550 + fludarabine the values were G-361: 109; LOX IMVI: 151; COLO 829: 103; COLO 792: 79.3. everolimus + GSK0660 gave G-361: 64.3; LOX IMVI: 98.9; COLO 829: 90.7; COLO 792: 60.8. XAV939 + fludarabine gave G-361: 90.4; LOX IMVI: 95.1; COLO 829: 99.6; COLO 792: 81.8.

With GW2580 + YM155 the screen read G-361: 110; LOX IMVI: 118; COLO 829: 64.9; COLO 792: 101. PF-04217903 + decitabine gave G-361: 90.2; LOX IMVI: 127; COLO 829: 82.3; COLO 792: 73.7.

Once more, the final 4:

| Combination | G-361 | LOX IMVI | COLO 829 | COLO 792 |
|---|---|---|---|---|
| everolimus + GSK0660 | 64.3 | 98.9 | 90.7 | 60.8 |
| XAV939 + fludarabine | 90.4 | 95.1 | 99.6 | 81.8 |
| GW2580 + YM155 | 110 | 118 | 64.9 | 101 |
| PF-04217903 + decitabine | 90.2 | 127 | 82.3 | 73.7 |